# PubChem BioAssay AID504764, Drosophila RNAi Screening Center | 2011
# Purpose: 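Knock-downs that raise or lower a Notch target reporter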 (primary screen)
# Cell system: Drosophila Kc167 cells
# Reagents: long dsRNA against Drosophila genes
# Duration: about 5 days (4 days dsRNA, then 24 h after transfection)
# Conditions: transfection of constitutively active membrane-tethered Notch lacking the extracellular domain, read 24 h later
# Read-out: 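Firefly luciferase from an E(spl)m3 reporter with active Notch, plus control-promoter and uninduced reporter wells for normalisation; unnormalised counts, duplicate wells a and b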
# Scale: induced reporter light, run 1, well a and induced reporter light, run 1, well b: higher = more light from the Notch target reporter with active Notch; control promoter light, run 1, well a and control promoter light, run 1, well b: higher = more light from the viral control promoter (cell number, transfection, viability); uninduced reporter light, run 1, well a: higher = more light from the Notch target reporter without active Notch
# Rule for the call: 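Wells with low control signal or poorly matching duplicates excluded; duplicates averaged; per source plate, z beyond ±2 for induced/control log2 ratio or beyond ±1.8 for induced/uninduced marks a hit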
# Meaning of the calls: active = modifier hit (raised or lowered Notch signal); inactive = not a hit
# In all, the deposit lists about 22,000 reagents; shown is a random part of those that have a named target and a result. Over the whole deposit, 403 (1.9%) are marked active. 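Unnormalised raw counts per well; ratio z-scores behind the hit calls and whether each hit raises or lowers signal are not deposited.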 Reagents against one gene are numbered here. Not given: the amount of reagent.
The first 6 records, to show the layout:
target gene,reagent,"induced reporter light, run 1, well a","induced reporter light, run 1, well b","control promoter light, run 1, well a","control promoter light, run 1, well b","uninduced reporter light, run 1, well a",Outcome
Mpp6 (M-phase phosphoprotein 6),1,35525,30285,34750,23245,2180,inactive
mRpL46 (mitochondrial ribosomal protein L46),1,94565,1.30e5,1.47e5,1.46e5,4965,inactive
CG11828,1,1.07e5,94675,1.18e5,1.40e5,9265,inactive
CG17237,1,1.06e5,1.31e5,1.14e5,81130,11050,inactive
CG31562 (retired record),1,1.23e5,1.24e5,1.19e5,93710,8060,inactive
CG31562 (retired record),2,30380,26330,29775,31550,2230,inactive

Main list, from the first entry:
target gene,reagent,"induced reporter light, run 1, well a","induced reporter light, run 1, well b","control promoter light, run 1, well a","control promoter light, run 1, well b","uninduced reporter light, run 1, well a",Outcome
Mpp6 (M-phase phosphoprotein 6),1,35525,30285,34750,23245,2180,inactive
mRpL46 (mitochondrial ribosomal protein L46),1,94565,1.30e5,1.47e5,1.46e5,4965,inactive
CG11828,1,1.07e5,94675,1.18e5,1.40e5,9265,inactive
CG17237,1,1.06e5,1.31e5,1.14e5,81130,11050,inactive
CG31562 (retired record),1,1.23e5,1.24e5,1.19e5,93710,8060,inactive
CG31562 (retired record),2,30380,26330,29775,31550,2230,inactive
Naprt (Nicotinate phosphoribosyltransferase),1,74460,79370,66170,66625,5350,inactive
Nep2 (Neprilysin 2),1,1.49e5,1.47e5,1.20e5,1.03e5,9285,inactive
CG11980,1,47915,72345,46875,46205,5532,inactive
Zmynd8 (Zinc finger MYND-type containing 8),1,1.56e5,1.72e5,2.30e5,2.16e5,12940,inactive
dgt1 (dim gamma-tubulin 1),1,74380,82190,1.27e5,1.10e5,5295,inactive
CG13101,1,2.62e5,2.15e5,1.84e5,1.90e5,16470,inactive
Sas10 (Something about silencing 10),1,1.72e5,2.20e5,4.20e5,3.15e5,12760,inactive
EMC10 (ER membrane protein complex subunit 10),1,92295,1.39e5,99995,1.02e5,8078,inactive
cdm (cadmus),1,2.56e5,2.56e5,2.76e5,3.25e5,16700,active
pygo (pygopus),1,1.22e5,1.41e5,1.33e5,1.35e5,10550,inactive
ergic53,1,2.28e5,2.61e5,2.20e5,1.90e5,11470,inactive
Obp50e (Odorant-binding protein 50e),1,76195,97055,1.02e5,99485,7588,inactive
cGlr2 (cGAS-like receptor 2),1,1.20e5,1.49e5,2.02e5,2.14e5,8020,inactive
CG8501,1,84960,90735,77755,66880,7785,inactive
I-3 (Inhibitor-3),1,82320,81860,94310,1.13e5,9285,inactive
CG9682,1,1.57e5,2.03e5,2.28e5,2.31e5,15630,inactive
fd102C (forkhead domain 102C),1,1.07e5,1.12e5,1.90e5,1.94e5,8835,inactive
nmd (no mitochondrial derivative),1,1.88e5,1.89e5,1.71e5,1.67e5,16370,inactive
Cht4 (Chitinase 4),1,44245,51615,72355,82955,2925,inactive
Tspo (Translocator protein),1,1.28e5,1.40e5,1.14e5,1.17e5,10130,inactive
Obp57c (Odorant-binding protein 57c),1,1.14e5,1.20e5,1.21e5,1.41e5,9040,inactive
Sema1b (Semaphorin 1b),1,1.01e5,1.16e5,2.00e5,1.98e5,9025,inactive
teq (Tequila),1,2.09e5,2.58e5,3.03e5,2.90e5,18025,inactive
teq (Tequila),2,2.46e5,2.36e5,3.68e5,3.37e5,13970,inactive
teq (Tequila),3,2.27e5,2.45e5,2.93e5,2.71e5,14615,inactive
CG14931,1,1.27e5,1.89e5,72315,1.14e5,17170,inactive
CG7080,1,1.40e5,1.54e5,2.07e5,2.24e5,14600,inactive
bic (bicaudal),1,85280,99565,77820,93810,7445,inactive
Lsp2 (Larval serum protein 2),1,1.69e5,1.42e5,2.79e5,2.22e5,9205,inactive
Lsp2 (Larval serum protein 2),2,1.96e5,1.60e5,3.25e5,1.89e5,9982,inactive
in (inturned),1,1.51e5,81990,1.06e5,1.10e5,7005,inactive
CG46339,1,1.57e5,1.77e5,2.02e5,2.40e5,14755,inactive
CG15023,1,2.27e5,2.26e5,3.21e5,3.31e5,12095,inactive
CG14947,1,1.79e5,2.08e5,1.71e5,1.97e5,17275,inactive
CG3739,1,1.97e5,1.83e5,2.34e5,2.34e5,14835,inactive
TwdlE (TweedleE),1,1.62e5,1.63e5,99900,1.16e5,22315,inactive
Ptpmeg2 (Protein tyrosine phosphatase Meg2),1,1.08e5,1.17e5,2.10e5,1.45e5,9280,inactive
Ptpmeg2 (Protein tyrosine phosphatase Meg2),2,1.10e5,1.23e5,2.42e5,2.51e5,9500,inactive
CG4073,1,80570,93640,74850,51375,3850,inactive
Prosbeta4R2 (Proteasome beta4 subunit-related 2),1,1.76e5,1.93e5,1.92e5,1.76e5,19750,inactive
Ppi1 (Protein phosphatase 1c interacting protein 1),1,1.62e5,1.68e5,2.43e5,2.40e5,9825,inactive
Thor,1,1.72e5,1.85e5,1.72e5,1.64e5,13770,inactive
Pif2 (PFTAIRE-interacting factor 2),1,66830,96130,70225,70220,6050,inactive
ArfGAP1 (ADP-ribosylation factor GTPase activating protein 1),1,2.15e5,1.76e5,2.64e5,2.85e5,17185,inactive
